Screen size: about 1,400 compounds; about 50 (4%) were called active.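 The calls were made as follows: active = mean inhibition across replicates above about 26% (limit read from the data); inactive = the rest.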 This is a selection; strong and weak results do not stand in their true shares.
Molecular target: Caspase-3 (Homo sapiens) (UniProt P42574)
Experiment: CASP3 blockers, validation, counterassay for UBE2N polyubiquitination inhibitor project, biochemical, one-dose (AID 488856);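 also: plate controls were DMSO with caspase-3 for no effect and DMSO wells lacking enzyme for full effect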
Conditions: Recombinant caspase-3, Caspase-Glo 3/7 luminescence, 60 min; at 20 µM; hits give high values

The chains behind the UniProt entries cited, without tags or fusion partners. Where a name states a change or a piece, a line headed by the entry shows the natural chain unless it says otherwise.
UniProt P42574: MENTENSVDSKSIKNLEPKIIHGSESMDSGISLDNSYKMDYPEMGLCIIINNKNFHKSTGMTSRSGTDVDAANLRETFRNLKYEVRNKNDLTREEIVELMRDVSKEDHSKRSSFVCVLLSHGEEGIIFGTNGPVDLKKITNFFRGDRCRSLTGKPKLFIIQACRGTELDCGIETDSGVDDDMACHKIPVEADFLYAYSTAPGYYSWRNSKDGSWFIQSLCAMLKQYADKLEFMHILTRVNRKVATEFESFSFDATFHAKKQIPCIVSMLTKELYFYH

**Q.** For `CNCC(O)c1cc(F)c(OCc2ccccc2)c(OCc2ccccc2)c1F` (stereo unspecified), which inhibition is on record?
**A.** inactive: -2.3%
